{
  "source": "patent US20100055116A1",
  "about": "“Methods and Compositions for Targeting c-Rel” (priority 2006, published 2010)",
  "system": "NF-kB/Rel (nuclear extract of B cells) (Mus musculus)",
  "assay": "EMSA",
  "conditions": "anti-IgM or anti-CD40 stimulated B cells; transient in control, sustained in Pten-mutant; poly(dI-dC), 200 mM KCl, on ice; protein in an extract; label: 32P; folded or branched DNA",
  "note": "Construct, isoform or probe ends are uncertain for at least one entry. Where cells or extracts were used, other partners may take part.",
  "data": [
    {"sequence": "GAGAGGGGACTTTCCGATTAGCTTTCGGAAAGTCCCCTC [IgkB loop oligo]", "values": [
      {"measurement": "binding result", "value": "binds"}
    ]}
  ]
}
